Test results taken from the NIST ThermoML archive (doi:10.1016/j.tca.2010.04.013).

Columns and labels:
[1] = relative permittivity at various frequencies (dimensionless); conditions: 303.15 K; 101.3 kPa; Liquid; Frequency=1 MHz; capacitance measurements at 1 MHz
[2] = relative permittivity at various frequencies (dimensionless); xn = mol fraction of the nth substance listed; conditions: 303.15 K, 101.3 kPa, Liquid, Frequency=1 MHz, capacitance measurements at 1 MHz

CC(=O)N(C)C [N,N-dimethylethanamide]
Conditions	relative permittivity
[1]	37.72

CC(=O)N(C)C [N,N-dimethylethanamide] + CCO
[2]
Conditions	relative permittivity
x2 = 0	37.72
x2 = 0.102	36.31
x2 = 0.197	35.21
x2 = 0.285	34.16
x2 = 0.367	32.95
x2 = 0.444	32.15
x2 = 0.515	31.25
x2 = 0.583	30.3
x2 = 0.646	29.54
x2 = 0.705	28.71
x2 = 0.761	27.78
x2 = 0.814	27
x2 = 0.864	26.2
x2 = 0.912	25.49
x2 = 0.957	24.64

CC(=O)N(C)C [N,N-dimethylethanamide] + OCCO
[2]
Conditions	relative permittivity
x2 = 0	37.72
x2 = 0.106	38.21
x2 = 0.204	38.76
x2 = 0.294	39.26
x2 = 0.378	39.64
x2 = 0.455	39.95
x2 = 0.527	40.24
x2 = 0.594	40.45
x2 = 0.656	40.59
x2 = 0.715	40.62
x2 = 0.769	40.51
x2 = 0.821	40.49
x2 = 0.87	40.46
x2 = 0.916	40.29
x2 = 0.959	40.06
